Some entries share one result that the patent states for a list of compounds.
Key:
HepG2 liver cells = test: Cell proliferation assay / cell morphology (cytotoxicity); assay type: cell-based, human
Method: (§1) Underlying scaffolds A, B, C and D and lipid-varied analogues E1 to E7 were assayed for cytotoxicity towards human liver cells (Hep2G) and human kidney cells (HEK293).
(§2) Mammalian cells were cultured in DMEM medium supplemented with 10% heat inactivated fetal bovine serum (FBS, v/v). The cultures were maintained in a humidified incubator at 37° C. in 5% CO2/95% air. FBS was reduced to 2% for the cell proliferation assay.
(§3) In sterile 96-well plate, each well was seeded with 1×10^5 cells. The cells were then grown confluent overnight in 100 μL DMEM with 10% FBS. The medium was replenished with DMEM with 2% FBS and added vehicle control or test substance the next day. For test substance in methanol, stock was added to 25 μL of DMEM with 2% FBS or PBS and placed in a laminar flow hood to let the methanol evaporate (about 1-3 hrs). Once the methanol has evaporated, DMEM with 2% FBS was added to final volume of 100 μL of desired test concentration. […] Cells were grown for additional 24 hrs. The cell viability was determined by using a Promega CellTiter 96 AQueous One Solution Cell Proliferation Assay System following the manufacturer's protocol.

HEK293 kidney cells = test: as above; assay type: cell-based, human
Method: as §1, §2, §3

[1] = tested on: Pseudomonas aeruginosa (ATCC27853); test: Kirby-Bauer disc diffusion susceptibility test; assay type: cell-based; details: compared with natural tunicamycin
Method: Bioactivity was assessed using the Kirby-Bauer disc diffusion susceptibility test. Oxoid Blank Discs were impregnated with the desired test substance. A 0.5 McFarland standard inoculum was prepared by adding 3-5 single colonies to 10 mL MH broth in a 15 mL falcon tube and standardised to 0.5 McFarland standard. The inoculum was used within 10 minutes. A sterile cotton swab was dipped in the inoculum, gently pressed against the side of the tube to remove excess liquid, and generously streaked on MH agar plate to fully cover the plate. The impregnated disc was carefully placed on the agar. The plate was incubated at 35° C. for 20 hrs overnight. A digital calliper was used to measure the zone diameter. The recorded zone diameter is an average of three zone diameters measured of one zone.
Each 6 mm disc was impregnated with 5 μg of the relevant compound (TM, A, B, C, D, or any of E1 to E7), and the diffusion zone recorded after 20 hours.
Underlying scaffolds A, B, C and D and lipid-varied analogues E1 to E7 were assayed for potency against Pseudomonas aeruginosa (ATCC27853), according to the methods of Example 2. Results of the Kirby-Bauer disc diffusion susceptibility test conducted using Pseudomonas aeruginosa (ATCC27853) as a test organism are shown in FIG. 2 and in Table 3. MIC, MBC and IC50 values were also obtained as in Example 2.

[2] = Solubility testing / formulation; assay type: physicochemical; details: aqueous solution of Tween 80 (0.5%) and sodium hydroxide (0.1-0.5%)

CCCCCCCC(=O)NC1C(OC2OC(C[C@@H](O)[C@H]3O[C@@H](n4ccc(=O)[nH]c4=O)[C@H](O)[C@@H]3O)C(O)C(O)[C@H]2NC(=O)CCCCCCC)OC(CO)[C@@H](O)C1O (some centres unmarked) [Compound E3, Di-N-octanoyl-tunicamycin]
viable cells (HepG2 liver cells; HepG2, 24 hours with 400 μg/mL): > 75%
Morphological changes by microscopy (HepG2 liver cells; HepG2, 24 hours, analogues at 400 μg/mL): no morphological changes
viable cells (HEK293 kidney cells; HEK293, 24 hours with 400 μg/mL): > 75%
Morphological changes by microscopy (HEK293 kidney cells; HEK293, 24 hours, analogues at 400 μg/mL): no morphological changes

CCCCCCCCC(=O)NC1C(OC2OC(C[C@@H](O)[C@H]3O[C@@H](n4ccc(=O)[nH]c4=O)[C@H](O)[C@@H]3O)C(O)C(O)[C@H]2NC(=O)CCCCCCCC)OC(CO)[C@@H](O)C1O (some centres unmarked) [Compound E4, Di-N-nonanoyl-tunicamycin]
Inhibitory activity against Pseudomonas aeruginosa [1]: greater than that observed for natural tunicamycin
Concentration that can be dissolved [2]: > 10000 µg/mL

CCCCCCCCCC(=O)NC1C(OC2OC(C[C@@H](O)[C@H]3O[C@@H](n4ccc(=O)[nH]c4=O)[C@H](O)[C@@H]3O)C(O)C(O)[C@H]2NC(=O)CCCCCCCCC)OC(CO)[C@@H](O)C1O (some centres unmarked) [Compound E5, Di-N-decanoyl-tunicamycin]
Inhibitory activity against Pseudomonas aeruginosa [1]: greater than that observed for natural tunicamycin

CCCCCCCCCCC(=O)NC1C(OC2OC(C[C@@H](O)[C@H]3O[C@@H](n4ccc(=O)[nH]c4=O)[C@H](O)[C@@H]3O)C(O)C(O)[C@H]2NC(=O)CCCCCCCCCC)OC(CO)[C@@H](O)C1O (some centres unmarked) [Compound E6, Di-N-undecanoyl-tunicamycin]
Inhibitory activity against Pseudomonas aeruginosa [1]: greater than that observed for natural tunicamycin

Source: patent US10954262B2, “Tunicamycin analogues” (Oxford University Innovation Limited, priority 2017, dated 2021)
